Experimental data reported in PMC10927090, “Plasmodium falciparum contains functional SCF and CRL4 ubiquitin E3 ligases, and CRL4 is critical for cell division and membrane integrity” (PLOS Pathogens, 2024).

Amino acid sequences for entries named in this document (tags omitted). A change or cut given only in a name is not applied to a line headed by its entry.
UniProt Q7KQK2: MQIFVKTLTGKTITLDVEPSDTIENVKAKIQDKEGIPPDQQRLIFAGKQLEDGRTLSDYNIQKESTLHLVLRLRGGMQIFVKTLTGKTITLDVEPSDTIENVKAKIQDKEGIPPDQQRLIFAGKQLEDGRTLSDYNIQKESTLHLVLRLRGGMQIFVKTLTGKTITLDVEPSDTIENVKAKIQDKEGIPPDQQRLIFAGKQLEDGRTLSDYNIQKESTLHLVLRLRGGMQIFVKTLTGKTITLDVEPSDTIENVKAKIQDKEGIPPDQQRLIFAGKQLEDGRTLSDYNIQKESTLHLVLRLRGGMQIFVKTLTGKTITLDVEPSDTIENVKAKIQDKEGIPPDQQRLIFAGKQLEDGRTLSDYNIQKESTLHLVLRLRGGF
UniProt Q8IHZ9: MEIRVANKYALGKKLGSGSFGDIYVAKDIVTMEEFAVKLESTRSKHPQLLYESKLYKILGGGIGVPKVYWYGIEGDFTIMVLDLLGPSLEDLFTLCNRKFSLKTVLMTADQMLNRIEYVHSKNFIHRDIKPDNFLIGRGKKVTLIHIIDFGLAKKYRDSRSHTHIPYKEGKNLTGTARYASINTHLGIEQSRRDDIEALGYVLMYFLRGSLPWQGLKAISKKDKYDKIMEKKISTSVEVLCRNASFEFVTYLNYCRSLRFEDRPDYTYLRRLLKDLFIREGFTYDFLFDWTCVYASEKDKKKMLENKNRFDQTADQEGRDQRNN

T1: PfRbx1 with C-terminal Myc-tag (P. falciparum) (UniProt O77367)
T1 sequence: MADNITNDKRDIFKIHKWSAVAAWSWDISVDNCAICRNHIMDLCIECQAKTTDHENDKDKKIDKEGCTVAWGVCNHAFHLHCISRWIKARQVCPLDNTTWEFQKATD

T2: PfCullin-1/GFP (P. falciparum) (UniProt Q8IAU5)
T2 sequence: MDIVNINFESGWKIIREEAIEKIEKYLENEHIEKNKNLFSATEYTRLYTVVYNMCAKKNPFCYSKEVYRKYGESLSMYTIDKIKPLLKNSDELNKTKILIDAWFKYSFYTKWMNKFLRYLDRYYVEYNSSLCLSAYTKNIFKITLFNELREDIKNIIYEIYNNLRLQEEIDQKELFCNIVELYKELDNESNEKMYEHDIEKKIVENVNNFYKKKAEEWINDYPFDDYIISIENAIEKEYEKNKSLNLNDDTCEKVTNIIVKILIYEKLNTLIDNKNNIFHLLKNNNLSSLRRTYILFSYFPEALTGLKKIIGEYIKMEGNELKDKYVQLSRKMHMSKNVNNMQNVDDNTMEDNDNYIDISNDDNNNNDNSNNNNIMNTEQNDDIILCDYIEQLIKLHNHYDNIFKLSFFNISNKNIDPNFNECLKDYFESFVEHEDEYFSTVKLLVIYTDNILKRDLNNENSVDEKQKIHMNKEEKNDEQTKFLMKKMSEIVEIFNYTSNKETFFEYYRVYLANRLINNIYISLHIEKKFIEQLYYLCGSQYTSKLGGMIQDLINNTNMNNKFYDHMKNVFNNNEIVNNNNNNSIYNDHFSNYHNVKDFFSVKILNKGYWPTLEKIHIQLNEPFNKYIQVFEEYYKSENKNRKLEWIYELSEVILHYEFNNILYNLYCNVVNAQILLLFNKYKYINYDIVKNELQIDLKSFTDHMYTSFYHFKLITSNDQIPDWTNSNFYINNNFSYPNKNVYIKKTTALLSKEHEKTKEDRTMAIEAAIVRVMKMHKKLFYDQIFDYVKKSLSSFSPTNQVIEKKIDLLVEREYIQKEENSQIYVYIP

T3: PfSkp1 with C-terminal GFP-tag (P. falciparum) (UniProt Q8ID38)
T3 sequence: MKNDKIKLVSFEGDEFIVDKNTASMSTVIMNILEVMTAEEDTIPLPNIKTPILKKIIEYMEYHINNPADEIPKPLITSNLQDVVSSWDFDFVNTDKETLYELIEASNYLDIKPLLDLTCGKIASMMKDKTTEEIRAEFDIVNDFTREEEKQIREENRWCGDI

T4: PfSkp1 with C-terminal GFP-tag (P. falciparum), Q8ID38
T4 chain: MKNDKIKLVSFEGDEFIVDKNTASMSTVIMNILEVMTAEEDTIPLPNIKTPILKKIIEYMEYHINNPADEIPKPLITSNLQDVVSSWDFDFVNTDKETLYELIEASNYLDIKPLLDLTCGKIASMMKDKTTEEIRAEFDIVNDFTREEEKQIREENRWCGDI

T5: PfCullin-2/cDDHA (P. falciparum) (UniProt C6KTD3)
T5 sequence: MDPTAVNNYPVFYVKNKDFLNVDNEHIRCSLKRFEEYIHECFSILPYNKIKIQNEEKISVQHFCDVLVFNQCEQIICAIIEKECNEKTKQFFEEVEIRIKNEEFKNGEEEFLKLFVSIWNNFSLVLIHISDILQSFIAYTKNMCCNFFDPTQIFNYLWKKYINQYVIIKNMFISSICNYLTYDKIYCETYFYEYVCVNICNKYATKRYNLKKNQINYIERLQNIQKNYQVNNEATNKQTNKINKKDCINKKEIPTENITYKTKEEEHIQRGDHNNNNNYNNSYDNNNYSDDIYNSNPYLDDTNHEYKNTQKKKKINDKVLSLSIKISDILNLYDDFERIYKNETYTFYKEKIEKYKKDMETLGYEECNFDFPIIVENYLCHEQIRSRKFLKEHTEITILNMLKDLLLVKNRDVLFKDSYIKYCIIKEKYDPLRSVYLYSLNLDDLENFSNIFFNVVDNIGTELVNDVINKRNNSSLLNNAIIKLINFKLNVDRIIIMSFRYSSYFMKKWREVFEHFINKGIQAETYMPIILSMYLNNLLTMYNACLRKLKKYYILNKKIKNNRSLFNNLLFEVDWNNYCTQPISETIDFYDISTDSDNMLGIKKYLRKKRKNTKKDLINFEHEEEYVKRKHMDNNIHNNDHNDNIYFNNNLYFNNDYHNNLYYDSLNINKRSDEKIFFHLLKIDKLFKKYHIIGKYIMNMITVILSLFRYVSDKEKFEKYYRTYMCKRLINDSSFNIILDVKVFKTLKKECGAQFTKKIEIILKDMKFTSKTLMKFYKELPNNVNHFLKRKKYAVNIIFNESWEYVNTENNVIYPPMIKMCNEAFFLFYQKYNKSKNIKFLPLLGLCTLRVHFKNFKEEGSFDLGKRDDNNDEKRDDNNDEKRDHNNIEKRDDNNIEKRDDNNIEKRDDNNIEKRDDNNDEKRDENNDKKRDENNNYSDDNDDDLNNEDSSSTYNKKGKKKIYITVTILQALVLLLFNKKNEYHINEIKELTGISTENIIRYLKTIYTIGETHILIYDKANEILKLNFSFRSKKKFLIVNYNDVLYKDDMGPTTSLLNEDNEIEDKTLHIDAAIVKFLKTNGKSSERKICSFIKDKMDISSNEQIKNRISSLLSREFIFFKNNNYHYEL

B1: PfRbx1, O77367 1-107 (protein)
chain: MADNITNDKRDIFKIHKWSAVAAWSWDISVDNCAICRNHIMDLCIECQAKTTDHENDKDKKIDKEGCTVAWGVCNHAFHLHCISRWIKARQVCPLDNTTWEFQKATD
B2: PfRbx1 (protein, UniProt O77367 1-107)
chain: MADNITNDKRDIFKIHKWSAVAAWSWDISVDNCAICRNHIMDLCIECQAKTTDHENDKDKKIDKEGCTVAWGVCNHAFHLHCISRWIKARQVCPLDNTTWEFQKATD
B3: PfCullin-1 (protein, UniProt Q8IAU5 1-829)
chain: MDIVNINFESGWKIIREEAIEKIEKYLENEHIEKNKNLFSATEYTRLYTVVYNMCAKKNPFCYSKEVYRKYGESLSMYTIDKIKPLLKNSDELNKTKILIDAWFKYSFYTKWMNKFLRYLDRYYVEYNSSLCLSAYTKNIFKITLFNELREDIKNIIYEIYNNLRLQEEIDQKELFCNIVELYKELDNESNEKMYEHDIEKKIVENVNNFYKKKAEEWINDYPFDDYIISIENAIEKEYEKNKSLNLNDDTCEKVTNIIVKILIYEKLNTLIDNKNNIFHLLKNNNLSSLRRTYILFSYFPEALTGLKKIIGEYIKMEGNELKDKYVQLSRKMHMSKNVNNMQNVDDNTMEDNDNYIDISNDDNNNNDNSNNNNIMNTEQNDDIILCDYIEQLIKLHNHYDNIFKLSFFNISNKNIDPNFNECLKDYFESFVEHEDEYFSTVKLLVIYTDNILKRDLNNENSVDEKQKIHMNKEEKNDEQTKFLMKKMSEIVEIFNYTSNKETFFEYYRVYLANRLINNIYISLHIEKKFIEQLYYLCGSQYTSKLGGMIQDLINNTNMNNKFYDHMKNVFNNNEIVNNNNNNSIYNDHFSNYHNVKDFFSVKILNKGYWPTLEKIHIQLNEPFNKYIQVFEEYYKSENKNRKLEWIYELSEVILHYEFNNILYNLYCNVVNAQILLLFNKYKYINYDIVKNELQIDLKSFTDHMYTSFYHFKLITSNDQIPDWTNSNFYINNNFSYPNKNVYIKKTTALLSKEHEKTKEDRTMAIEAAIVRVMKMHKKLFYDQIFDYVKKSLSSFSPTNQVIEKKIDLLVEREYIQKEENSQIYVYIP

What follows are molecules tested against T1, PfRbx1 with C-terminal Myc-tag (P. falciparum) (assay: affinity purification with mass spectrometry; parasite lysates (10 mM Tris, 0.5 mM EDTA, 100 mM NaCl, 0.5% NP-40, pH 7.5) incubated with GFP-Trap (PfCullin-1/GFP, PfSkp1GFP) or Myc-Trap (PfRbx1myc) beads 2 h at 4°C; LC-MS/MS of eluates; hits exclusive against GFP control or wild type D10, in at least 2 of 3 repeats). Conditions: not given.
For PfAtg18, the binding was “binds”.
PfNEDD8 was tested, and the binding was “binds”.
In the case of Tubulin gamma chain, the binding is reported as “binds”.
actin related protein was tested, and the binding was “binds”.
With regulator of chromosome condensation the binding was “binds”.

What follows are molecules tested against T2, PfCullin-1/GFP (P. falciparum) in the same assay as above. Conditions: not given.
With DDI1 the binding was “binds”.

Each molecule was assayed against T3, PfSkp1 with C-terminal GFP-tag (P. falciparum) in the same assay as above. Conditions: not given.
In the case of DDI1, the binding is reported as “binds”.
With Polyubiquitin (from UniProt Q7KQK2) the binding was “binds”.
With anti-oxidant protein DJ1 the binding was “binds”.
calcyclin binding protein (PfCacyBP) was tested, and the binding was “binds”.
In the case of exported protein PHISTb, the binding is reported as “binds”.
In the case of putative FBXO1 protein (PfFBXO1), the binding is reported as “binds”.

Molecular target: T4, PfSkp1 with C-terminal GFP-tag (P. …)
Experiment: as above
Conditions: remark: other sources report otherwise
With B1 the binding was “no binding”.

What follows are molecules tested against T5, PfCullin-2/cDDHA (P. falciparum) (assay: affinity purification with mass spectrometry; PfCul2KDD10 parasite lysate (10 mM Tris-Cl, 150 mM NaCl, 0.5 mM EDTA, 0.1% NP-40, 10% glycerol, pH 7.5) with rabbit anti-HA antibodies overnight, protein A/G magnetic beads; LC-MS/MS of eluates; hits exclusive against wild type D10, in at least 2 of 3 repeats). Conditions: not given.
For KAHRP, the binding was “binds”.
With “P. falciparum ubiquitin carboxy-terminal hydrolase 7 (PfUCH7) (enzyme)” the binding was “binds”.
In the case of PHISTc, the binding is reported as “binds”.
With PfNEDD8 the binding was “binds”.
WD40 repeat protein PfWD40A was tested, and the binding was “binds”.
With WD40 repeat protein PfWD40B the binding was “binds”.
With “casein kinase 1 (from UniProt Q8IHZ9 1-324) (enzyme)” the binding was “binds”.
In the case of exportin-7, the binding is reported as “binds”.
With karyopherin alpha the binding was “binds”.
For “parasite-infected erythrocyte surface protein 2”, the binding was “binds”.
For rhoptry neck protein 3, the binding was “binds”.
With rhoptry neck protein 5 the binding was “binds”.
translocon component PTEX88 was tested, and the binding was “binds”.
B2 was tested, and the binding was “binds”.

Molecular target: T1, PfRbx1 with C-terminal Myc-tag (P. falciparum)
Experiment: affinity purification with mass spectrometry; parasite lysates (10 mM Tris, 0.5 mM EDTA, 100 mM NaCl, 0.5% NP-40, pH 7.5) incubated with GFP-Trap (PfCullin-1/GFP, PfSkp1GFP) or Myc-Trap (PfRbx1myc) beads 2 h at 4°C; LC-MS/MS of eluates; hits exclusive against GFP control or wild type D10, in at least 2 of 3 repeats
Conditions: not given
Remark: another data set of the same source
In the case of B3, the binding is reported as “binds”.

Molecular target: T2, PfCullin-1/GFP (P. falciparum)
Experiment: as above
Conditions: not given
Remark: another data set of the same source
In the case of B2, the binding is reported as “binds”.

Molecular target: T3, PfSkp1 with C-terminal GFP-tag (P. falciparum)
Experiment: as above
Conditions: not given
Remark: another data set of the same source
With B3 the binding was “binds”.

No constants are given. Whether binding was seen depends on the method and setting. Binding seen in cells or lysates may run through a third protein. A yes stands for co-enrichment or nearness to the bait. Other partners may have been found. For part of these data: A no says only that the protein was not detected with the bait. For part of these data: Sequences can lack the tags named with a protein.
